The target of the assay is T1, HA-SFPQ (human) (UniProt P23246).
T1 sequence: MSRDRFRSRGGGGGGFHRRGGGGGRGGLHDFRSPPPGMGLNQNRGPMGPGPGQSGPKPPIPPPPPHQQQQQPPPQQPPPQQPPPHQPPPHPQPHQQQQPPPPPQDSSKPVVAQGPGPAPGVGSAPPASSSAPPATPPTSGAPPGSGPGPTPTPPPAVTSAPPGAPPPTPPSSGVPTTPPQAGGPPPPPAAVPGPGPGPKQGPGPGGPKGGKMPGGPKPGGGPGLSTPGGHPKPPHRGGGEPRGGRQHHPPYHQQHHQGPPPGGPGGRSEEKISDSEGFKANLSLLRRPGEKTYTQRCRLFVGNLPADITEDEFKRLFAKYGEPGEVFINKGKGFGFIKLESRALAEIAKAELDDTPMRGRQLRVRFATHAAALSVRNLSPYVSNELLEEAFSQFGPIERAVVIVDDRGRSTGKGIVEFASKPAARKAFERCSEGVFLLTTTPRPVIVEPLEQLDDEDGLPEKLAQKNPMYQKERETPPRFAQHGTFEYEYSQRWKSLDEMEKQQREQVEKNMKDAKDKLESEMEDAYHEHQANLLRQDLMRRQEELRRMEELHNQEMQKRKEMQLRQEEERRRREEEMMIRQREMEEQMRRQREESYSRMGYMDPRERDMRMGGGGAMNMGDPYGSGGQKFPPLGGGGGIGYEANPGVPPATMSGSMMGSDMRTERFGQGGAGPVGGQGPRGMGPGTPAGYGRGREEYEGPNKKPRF
In words: co-IP.

These are yes or no findings as the source states them, for the method shown. In cells and extracts the contact can be indirect. Binding calls can cover weak binding; strength is not graded here. Tags and fused reporters may be left off the sequences shown.

As to “FLAG-KIF5A ΔTail (mouse) (domain or fragment)”, the binding entry is on record as “binds weakly”. Regarding KLC1-Myc N343S (mouse), the binding entry was “binds”.

(Values after article doi:10.1101/2020.02.02.931204.)
